In PMC6867850:
No constants are given. Whether binding was seen depends on the method and setting. In cells and extracts the contact can be indirect. Some entries that bind do so weakly or less than the wild type.

Protein sequences, listed by entry. Tags and fused reporters are not part of them.
UniProt P19474: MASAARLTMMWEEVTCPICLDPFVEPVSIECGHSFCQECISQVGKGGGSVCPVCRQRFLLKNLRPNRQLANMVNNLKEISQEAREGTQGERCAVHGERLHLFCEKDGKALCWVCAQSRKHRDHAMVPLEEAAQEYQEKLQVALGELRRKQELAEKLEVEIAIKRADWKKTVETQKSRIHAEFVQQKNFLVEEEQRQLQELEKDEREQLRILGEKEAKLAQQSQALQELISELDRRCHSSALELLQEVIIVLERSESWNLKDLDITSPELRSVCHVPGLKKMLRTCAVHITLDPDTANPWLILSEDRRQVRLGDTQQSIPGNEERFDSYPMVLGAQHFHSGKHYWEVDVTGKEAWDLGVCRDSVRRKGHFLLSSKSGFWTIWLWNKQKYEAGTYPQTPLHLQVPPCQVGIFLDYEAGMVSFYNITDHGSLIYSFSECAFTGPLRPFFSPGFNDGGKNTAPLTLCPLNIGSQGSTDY
UniProt Q676U5: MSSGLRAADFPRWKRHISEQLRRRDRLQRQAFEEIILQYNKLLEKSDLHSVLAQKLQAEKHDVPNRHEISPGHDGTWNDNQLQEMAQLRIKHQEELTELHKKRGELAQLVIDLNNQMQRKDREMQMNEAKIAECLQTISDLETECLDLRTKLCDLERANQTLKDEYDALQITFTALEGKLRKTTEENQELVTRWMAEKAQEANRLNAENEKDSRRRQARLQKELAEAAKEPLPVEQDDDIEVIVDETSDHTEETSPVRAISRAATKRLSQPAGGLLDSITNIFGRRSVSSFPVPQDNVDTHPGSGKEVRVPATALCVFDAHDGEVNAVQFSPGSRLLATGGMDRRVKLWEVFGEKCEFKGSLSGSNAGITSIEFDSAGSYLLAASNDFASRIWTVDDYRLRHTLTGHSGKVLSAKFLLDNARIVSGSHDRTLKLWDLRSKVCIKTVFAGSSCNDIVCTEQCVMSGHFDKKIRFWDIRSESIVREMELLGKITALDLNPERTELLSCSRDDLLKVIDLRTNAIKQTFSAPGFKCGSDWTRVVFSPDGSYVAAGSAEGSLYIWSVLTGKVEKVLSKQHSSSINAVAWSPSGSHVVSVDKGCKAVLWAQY
UniProt Q14457: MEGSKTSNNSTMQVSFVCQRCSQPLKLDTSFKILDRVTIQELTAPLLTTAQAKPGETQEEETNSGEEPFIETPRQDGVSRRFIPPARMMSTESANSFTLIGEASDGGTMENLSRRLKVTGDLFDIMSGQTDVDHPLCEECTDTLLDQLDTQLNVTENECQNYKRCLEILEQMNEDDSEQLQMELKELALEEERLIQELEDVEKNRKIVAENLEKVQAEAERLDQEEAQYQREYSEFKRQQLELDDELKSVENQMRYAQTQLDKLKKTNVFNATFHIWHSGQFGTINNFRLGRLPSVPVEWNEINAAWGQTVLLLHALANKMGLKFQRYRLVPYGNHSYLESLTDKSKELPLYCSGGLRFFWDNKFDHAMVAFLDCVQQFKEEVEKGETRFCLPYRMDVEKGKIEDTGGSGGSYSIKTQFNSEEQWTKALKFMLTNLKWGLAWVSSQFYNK

Target: Tripartite motif protein 21 (TRIM21) (human (endogenous in THP-1)) (UniProt P19474)
Experiment: co-IP; anti-TRIM21 mouse monoclonal antibody cross-linked to protein A/G magnetic beads; 750 ug lysate of THP-1 cells harvested 30 min after infection with EHRL-4-opsonized E. chaffeensis; 1 h at RT; blots of the eluate

Row | binding | Substance
1 | binds | ATG16L1 (from UniProt Q676U5 1-607)
2 | binds | beclin 1 (from UniProt Q14457 1-450)
